## Screening data, single-dose tests

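Assay of Toxoplasma gondii numbers, read through their beta-galactosidase reporter with a colour substrate. Compounds at 50 µM. The record gives no direction; the compounds picked for IC50 retests had high values, so higher reads as fewer parasites. Of about 18,000 compounds tested this way, about 170 (0.94%) reached 50% or more in at least one test.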

Values are the deposited “Percent Effect”, in %.
The record does not define 0% and 100%; most values in the screen are far below 50% and negative numbers occur (in some assays of this library far below -100).
Compounds were drawn at random from those tested, without regard to their results.

SMILES	Percent Effect
O=C(CCNC(=O)NC1CCSCC1)NC1CCCC1	-1.28%
Cc1cnccc1NC(=O)NCC(=O)N1CCCC1	-0.6425%
O=C(Nc1ccc2[nH]ncc2c1)C1CCCO1 (centres unmarked)	-17.09%
CCCNC(=O)NC1CCN(CC)CC1	-13.92%
CN(C)c1ccc(C(=O)Nc2ccn(C)n2)cc1F	-33%
O=C(NCCO)Nc1ccnn1Cc1cccc(Br)c1	-5.679%
O=C(NC1CC1)c1snnc1-c1ccccc1	2.374%
CC(C)(CNC(=O)NCCc1cccc(F)c1)C(N)=O	-5.962%
CC(C)C(=O)NCc1ccnc(-n2cccn2)c1	-0.134%
CCN1CCN(C(=O)c2c(C)oc(C)c2C)CC1	-5.977%
NCc1ccc(CN2CCCC2=O)cc1	-14.5%
Cc1ccc(C)c(OCC(O)CN2CCOCC2)c1 (centres unmarked)	3.371%
CCCc1cc(-c2nc3c([nH]2)CCCNC3=O)on1	12.45%
O=C(NC1CC1)N1CCCCC1CCO (centres unmarked)	5.314%
COc1coc(C(=O)NCc2ccccc2)cc1=O	-25.46%
CNC(=O)COc1ccc(C(=O)NC2CCCC2)cc1	-10.48%
Cc1occc1C(=O)NC1CCN(C2CC2)CC1	-2.632%
Cc1noc(CN(C)CC2(CO)CCOCC2)n1	-9.914%
CN(Cc1ccon1)C(=O)C1COc2ccccc2C1 (centres unmarked)	-2.777%
NC(=O)c1ccc(C(=O)Nc2ccc(F)c(F)c2)cc1	-10.09%
CC1CCN(C(=O)c2occc2Br)CCS1(=O)=O (centres unmarked)	0.3233%
CNC(=O)C1CCCN1Cc1ccccc1N(C)C (centres unmarked)	3.263%
CCOc1ncc(Cl)cn1	-1.577%
COc1ccnc(C(=O)NC2(CO)CC2)c1	-4.266%
O=C(Nc1nccs1)C1CCCN(C(=O)NC2CC2)C1 (centres unmarked)	1.376%
CC(C(=O)n1ncc(C#N)c1N)N1CCCCCC1 (centres unmarked)	-7.416%
NCc1nc(-c2ccc(Cl)cc2)c[nH]1	-22.81%
NC(=O)C1CCOC1 (centres unmarked)	-3.787%
COc1ccc(NC(=O)N(C)CCO)c(Br)c1	-5.714%
O=S(=O)(C1CCOC1)N1CCCCC1 (centres unmarked)	1.732%
N[C@H]1CN(CC(=O)N2CCOCC2)C[C@@H]1C1CC1	0.1331%
OCC(O)CNc1cc(C(F)(F)F)nc2ccccc12 (centres unmarked)	-15.44%
NCCNCc1ccccn1	3.923%
CSc1ncc(C(=O)NCc2nnc3n2CCC3)cn1	-2.764%
CC(=O)NC(C(=O)Nc1ccc(N(C)C)nc1)C(C)C (centres unmarked)	-2.232%
Cn1ncc2c(NCc3ccccc3CO)ncnc21	2.537%
CC(Nc1ccc(OC(F)F)cn1)c1ccncc1 (centres unmarked)	9.986%
COCC(O)CN(C)C(=O)c1cccc(Br)c1Cl (centres unmarked)	-9.763%
COCCn1cnnc1SCC(C)C	-1.053%
O=S(=O)(C1CC1)N1CCC(NCc2ccco2)CC1	28.23%
CN(C)CCNC(=O)c1ccc(CN)cc1	-0.276%
CS(=O)(=O)N1CCC(=Cc2ccccc2)CC1	10.23%
CCN(CC)Cc1nn2c(=O)cc(C)nc2s1	7.557%
NCCNC(=O)CCCc1ccccc1	0.4926%
O=C1CC[C@@H](C(F)(F)F)N1	33.78%
O=C(C1CCCC1)N1CCCNCC1	12.52%
CCc1nc2ccccc2n1CCN	-7.421%
CSC(C)(C)COC(=O)c1ccc(-n2ccnc2)nc1	-0.5152%
CN(Cc1ccco1)C(=O)c1cccc(C#N)c1	3.347%
CN1C(=O)[C@H]2CN(Cc3cccc(Cl)c3F)C[C@H]2C1=O	-8.035%
CNC(=O)CCC(C)(C)NC(=O)c1cnc(C)c(C)c1	21.02%
CCC[C@H]1CN(C(=O)CN2CCCC2=O)C[C@@H]1N	-5.657%
O=C(NCCCn1cc(Cl)cn1)C1CCOCC1	-4.986%
C[C@@H]1CN(C(=O)CN2CCCC2)CC[C@@]1(O)C1CC1	-9.651%
CCc1c(C)nc2ncnn2c1N1CCN(C)CC1	-9.17%

5 of the entries, repeated:

CN1C(=O)[C@H]2CN(Cc3cccc(Cl)c3F)C[C@H]2C1=O gave -8.035%.
Cn1ncc2c(NCc3ccccc3CO)ncnc21 gave 2.537%.
CCN1CCN(C(=O)c2c(C)oc(C)c2C)CC1 gave -5.977%.
COc1ccnc(C(=O)NC2(CO)CC2)c1 gave -4.266%.
Cc1cnccc1NC(=O)NCC(=O)N1CCCC1 gave -0.6425%.

Data taken from ChEMBL document CHEMBL3988442, “University of Dundee, Small-Polar-MMV Screening Library” (2021).